# Legend:
# Assay type in all cases: cell-based
# [1] = system: P1 promoter region of the human Runx2 gene; assay: RUNX2 P1 promoter luciferase reporter assay in BMP-2-induced C3H10T1/2 stable expression strain (primary, secondary, tertiary screening); conditions: five times of screening (N=6/time); average of 5 times or even at once
# Excerpt: Existing drugs which increase the promoter activity of the transcription factor Runx2 were exhaustively searched by luciferase assay. Firstly, the P1 promoter region of the human Runx2 gene was inserted into the multiple cloning site of the pGL4 luciferase reporter vector (Promega K.K.) (pGL4.10 vector). The pGL4.10 vector was transfected into the undifferentiated mouse mesenchymal cell line C3H10T1/2, and selectively cultured on a G418-containing medium, thereby establishing the stable expression strain. The cells were seeded on a 96-well (day 1), and human BMP-2 was added to each well on day 2, thereby inducing differentiation into osteoblasts. On the following day, the test compounds (10 μM) composing Prestwick Chemical Library (registered trademark) (Prestwick Chemical Ltd.) were added, and the cells were collected 24 hours after, and subjected to luciferase assay.
# In addition to the compounds which made the reporter activity of luciferase (average of 5 times) 1.5 times that of the control, those made the activity 1.5 times than that of the control even at once were selected.
# [2] = system: P1 promoter region of the human Runx2 gene; assay: as above; conditions: three times of screening (N=6/time) at 8 levels of concentration
# luciferase protein = assay: double luciferase assay, pGL4.10 basic vector and phRL vector cotransfected into C3H10T1/2 cells; conditions: pGL4.10 [luc2/SV40] basic vector and phRL [hRluc/TK] vector
# Protocol: In order to exclude the possibility of the potential agent to increase the enzymatic activity of luciferase protein, the pGL4. 10 basic vector (pGL4.10 [luc2/SV40] basic vector) and phRLvector (phRL [hRluc/TK] vector) were cotransfected into the C3H10T1/2 cells, the potential agents were individually added, and double luciferase assay was performed.
smiles,measurement,setting,value
"Cl.Nc1nc2ccc(OC(F)(F)F)cc2s1 [riluzole hydrochloride, 6-(trifluoromethoxy)-1,3-benzothiazol-2-amine hydrochloride]",secondary screening: reporter activity of luciferase 1.5 times that of the control,[1],selected
same,tertiary screening: concentration dependency of the promotion of RUNX2 promoter activity,[2],concentration dependency
same,specificity of RUNX2 promoter promotion versus increase of luciferase activity,luciferase protein,slightly increase the luciferase activity

# Reference: patent US20140343104A1, “OSTEOGENESIS PROMOTER AND USE THEREOF” (National University Corporation Nagoya University, priority 2011, published 2014)
